This passage reports binding results from patent publication US20210380703A1.

For experiment [1], the target named is T1, His-tagged Mouse ACVR2B (mouse) (UniProt P27040).
T1 sequence (looked up): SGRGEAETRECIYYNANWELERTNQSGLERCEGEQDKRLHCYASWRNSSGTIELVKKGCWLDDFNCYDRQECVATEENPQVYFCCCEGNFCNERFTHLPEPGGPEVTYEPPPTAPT
The experiment can be described thus: ELISA, coated antigen, 10 pt.

For experiment [2], the target named is T2, His-tagged Human ACVR2B (human) (UniProt Q13705).
T2 sequence (looked up): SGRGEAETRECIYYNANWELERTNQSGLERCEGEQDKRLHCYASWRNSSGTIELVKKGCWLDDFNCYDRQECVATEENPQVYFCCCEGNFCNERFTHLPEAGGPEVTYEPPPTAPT
The experiment can be described thus: ELISA, coated antigen, 10 pt.

These are yes or no findings as the source states them, for the method shown. Where a sequence is shown, tags or fusion partners need not be part of it.

B1: 370_C05 (antibody, V domains shown)
VH: EVQLLESGGGLVQPGGSLRLSCAASGFTFSSYSMNWVRQAPGKGLEWVAGINYNSGYTGYADSVKGRFTISRDNSKNTLYLQMNSLRAEDTAVYYCARSANWHDTALDYWGQGTLVTVSS
VL: DIQMTQSPSSLSASVGDRVTITCRASQSILSYVNWYQQKPGKAPKLVIYAATSRASGVPSRFSGSGSGTDFTLTISSLQPEDFATYYCQQSYNSPLTFGGGTKVEIK
With B1, the binding result in experiment [1] and in experiment [2] was “no binding (tested: 1 uM top)” each time.

B2: 374_C06 (antibody, V domains shown)
VH: EVQLLESGGGLVQPGGSLRLSCAASGFTFDDYSMNWVRQAPGKGLEWVSSINYNSGYKGYADSVKGRFTISRDNSKNTLYLQMNSLRAEDTAVYYCARSANWHDTALDYWGQGTLVTVSS
VL: DIQMTQSPSSLSASVGDRVTITCRASQSILTYVNWYQQKPGKAPKLLIYAATSRASGVPSRFSGSGSGTDFTLTISSLQPEDFATYYCQQSYNSPLTFGGGTKVEIK
For the molecule B2, the binding entry in experiment [1] and in experiment [2] was “no binding (tested: 1 uM top)” throughout.

B3: 374_C03 (antibody, V domains shown)
VH: EVQLLESGGGLVQPGGSLRLSCAASGFTFDSYSMNWVRQAPGKGLEWVSGINYNSGYTSYADSVKGRFTISRDNSKNTLYLQMNSLRAEDTAVYYCARSANWHDTALDYWGQGTLVTVSS
VL: DIQMTQSPSSLSASVGDRVTITCRASQSILTYLNWYQQKPGKAPKLLIYAATSRASGVPSRFSGSGSGTDFTLTISSLQPEDFATYYCQQSYDSPLTFGGGTKVEIK
As for B3, the binding entry in experiment [1] and in experiment [2] was “no binding (tested: 1 uM top)” each time.

B4: 374_D08 (antibody, V domains shown)
VH: EVQLLESGGGLVQPGGSLRLSCAASGFTFDSYGMNWVRQAPGKGLEWVSGINYNSGYTGYADSVKGRFTISRDNSKNTLYLQMNSLRAEDTAVYYCARSANWHDTHLDYWGQGTLVTVSS
VL: DIQMTQSPSSLSASVGDRVTITCRASQSILTYLNWYQQKPGKAPKLLIYAATSRHSGVPSRFSGSGSGTDFTLTISSLQPEDFATYYCQQSYESPLTFGGGTKVEIK
Turning to B4, the binding entry in experiment [1] and in experiment [2] was “no binding (tested: 1 uM top)” in each case.

B5: 376_C06 (antibody, V domains shown)
VH: EVQLLESGGGLVQPGGSLRLSCAASGFTFSSYGMNWVRQAPGKGLEWVAGINYNGGYTSYADSVKGRFTISRDNSKNTLYLQMNSLRAEDTAVYYCARSATWHDTALDYWGQGTLVTVSS
VL: DIQMTQSPSSLSASVGDRVTITCRASQSILSYLNWYQQKPGKAPKLVIYAATSRASGVPSRFSGSGSGTDFTLTISSLQPEDFATYYCQQSYDSPLTFGGGTKVEIK
Regarding B5, the binding entry in experiment [1] and in experiment [2] was “no binding (tested: 1 uM top)” in each case.

B6: 373_B04 (antibody, V domains shown)
VH: EVQLLESGGGLVQPGGSLRLSCAASGFTFSSYGMNWVRQAPGKGLEWVAGINYNSGYKGYADSVKGRFTISRDNSKNTLYLQMNSLRAEDTAVYYCARSANWHDTALDYWGQGTLVTVSS
VL: DIQMTQSPSSLSASVGDRVTITCRASQSILTYLNWYQQKPGKAPKLLIYAATSRASGVPSRFSGSGSGTDFTLTISSLQPEDFATYYCQQSYETPLTFGGGTKVEIK
For B6, the binding entry in experiment [1] and in experiment [2] was “no binding (tested: 1 uM top)” in each case.

B7: 370_D04 (antibody, V domains shown)
VH: EVQLLESGGGLVQPGGSLRLSCAASGFTFDSYSMNWVRQAPGKGLEWVANINYNSGYKGYADSVKGRFTISRDNSKNTLYLQMNSLRAEDTAVYYCARSANWHDTALDYWGQGTLVTVSS
VL: DIQMTQSPSSLSASVGDRVTITCRASQSILTYLNWYQQKPGKAPKLVIYAATSRASGVPSRFSGSGSGTDFTLTISSLQPEDFATYYCQQSYDNPLTFGGGTKVEIK
For the molecule B7, the binding result in experiment [1] and in experiment [2] was “no binding (tested: 1 uM top)” each time.

B8: 373_D10 (antibody, V domains shown)
VH: EVQLLESGGGLVQPGGSLRLSCAASGFTFDSYSMNWVRQAPGKGLEWVSNINYNSGYKGYADSVKGRFTISRDNSKNTLYLQMNSLRAEDTAVYYCARSANWHDTALDYWGQGTLVTVSS
VL: DIQMTQSPSSLSASVGDRVTITCRASQSILSYVNWYQQKPGKAPKLLIYAATSRASGVPSRFSGSGSGTDFTLTISSLQPEDFATYYCQQSYDLPLTFGGGTKVEIK
Regarding B8, the binding result in experiment [1] and in experiment [2] was “no binding (tested: 1 uM top)” each time.

B9: 374_B06 (antibody, V domains shown)
VH: EVQLLESGGGLVQPGGSLRLSCAASGFTFDSYSMNWVRQAPGKGLEWVAGINYNSGYKGYADSVKGRFTISRDNSKNTLYLQMNSLRAEDTAVYYCARSANWHDTHLDYWGQGTLVTVSS
VL: DIQMTQSPSSLSASVGDRVTITCRASQSILTYVNWYQQKPGKAPKLLIYAATSRASGVPSRFSGSGSGTDFTLTISSLQPEDFATYYCQQSYDTPLTFGGGTKVEIK
Turning to B9, the binding entry in experiment [1] and in experiment [2] was “no binding (tested: 1 uM top)” each time.

B10: 372_F08 (antibody, V domains shown)
VH: EVQLLESGGGLVQPGGSLRLSCAASGFTFSDYSMNWVRQAPGKGLEWVSNINYNSGYTGYADSVKGRFTISRDNSKNTLYLQMNSLRAEDTAVYYCARSANWHDTALDYWGQGTLVTVSS
VL: DIQMTQSPSSLSASVGDRVTITCRASQSILTYVNWYQQKPGKAPKLVIYAATSRASGVPSRFSGSGSGTDFTLTISSLQPEDFATYYCQQSYDTPLTFGGGTKVEIK
Regarding B10, the binding entry in experiment [1] and in experiment [2] was “no binding (tested: 1 uM top)” throughout.

B11: 373_D04 (antibody, V domains shown)
VH: EVQLLESGGGLVQPGGSLRLSCAASGFTFDSYSMNWVRQAPGKGLEWVSGINYNSGYKGYADSVKGRFTISRDNSKNTLYLQMNSLRAEDTAVYYCARSANWHDTALDYWGQGTLVTVSS
VL: DIQMTQSPSSLSASVGDRVTITCRASQSILSYLNWYQQKPGKAPKLLIYAATSRHSGVPSRFSGSGSGTDFTLTISSLQPEDFATYYCQQSYDSPLTFGGGTKVEIK
For B11, the binding result in experiment [1] and in experiment [2] was “no binding (tested: 1 uM top)” each time.

B12: 365_E02 (antibody, V domains shown)
VH: EVQLLESGGGLVQPGGSLRLSCAASGFTFSSYSMNWVRQAPGKGLEWVANINYNGGYTSYADSVKGRFTISRDNSKNTLYLQMNSLRAEDTAVYYCAKSATWHDTHLDYWGQGTLVTVSS
VL: DIQMTQSPSSLSASVGDRVTITCRASQSIISYLNWYQQKPGKAPKLLIYAATSRASGVPSRFSGSGSGTDFTLTISSLQPEDFATYYCQQSYENPLTFGGGTKVEIK
For B12, the binding result in experiment [1] and in experiment [2] was “no binding (tested: 1 uM top)” in each case.

B13: 372_F03 (antibody, V domains shown)
VH: EVQLLESGGGLVQPGGSLRLSCAASGFTFSSYGMNWVRQAPGKGLEWVAGINYNGGYTSYADSVKGRFTISRDNSKNTLYLQMNSLRAEDTAVYYCARSANWHDTALDYWGQGTLVTVSS
VL: DIQMTQSPSSLSASVGDRVTITCRASQSILSYLNWYQQKPGKAPKLVIYAATSRASGVPSRFSGSGSGTDFTLTISSLQPEDFATYYCQQSYDTPLTFGGGTKVEIK
Consider B13, for which the binding entry in experiment [1] and in experiment [2] was “no binding (tested: 1 uM top)” each time.

B14: 374_B04 (antibody, V domains shown)
VH: EVQLLESGGGLVQPGGSLRLSCAASGFTFSSYSMNWVRQAPGKGLEWVSNINYNSGYTGYADSVKGRFTISRDNSKNTLYLQMNSLRAEDTAVYYCARSANWHDTALDYWGQGTLVTVSS
VL: DIQMTQSPSSLSASVGDRVTITCRASQSIVSYLNWYQQKPGKAPKLLIYAVTSRASGVPSRFSGSGSGTDFTLTISSLQPEDFATYYCQQSYESPLTFGGGTKVEIK
For B14, the binding entry in experiment [1] and in experiment [2] was “no binding (tested: 1 uM top)” in each case.

B15: 370_E09 (antibody, V domains shown)
VH: EVQLLESGGGLVQPGGSLRLSCAASGFTFDDSSMHWVRQAPGKGLEWVSNINYNGGYTGYADSVKGRFTISRDNSKNTLYLQMNSLRAEDTAVYYCAKSANWHDTALDYWGQGTLVTVSS
VL: DIQMTQSPSSLSASVGDRVTITCRASQSILSYVNWYQQKPGKAPKLVIYAATSRASGVPSRFSGSGSGTDFTLTISSLQPEDFATYYCQQSYELPLTFGGGTKVEIK
On to B15, for which the binding entry in experiment [1] and in experiment [2] was “no binding (tested: 1 uM top)” each time.

B16: 372_A04 (antibody, V domains shown)
VH: EVQLLESGGGLVQPGGSLRLSCAASGFTFDSYSMNWVRQAPGKGLEWVSGINYNSGYTSYADSVKGRFTISRDNSKNTLYLQMNSLRAEDTAVYYCARSANWHDTALDYWGQGTLVTVSS
VL: DIQMTQSPSSLSASVGDRVTITCRASQSILTYLNWYQQKPGKAPKLVIYAATSRASGVPSRFSGSGSGTDFTLTISSLQPEDFATYYCQQSYETPLTFGGGTKVEIK
B16: the binding entry in experiment [1] and in experiment [2] was “no binding (tested: 1 uM top)” each time.

B17: 370_H01 (antibody, V domains shown)
VH: EVQLLESGGGLVQPGGSLRLSCAASGFTFSSYSMNWVRQAPGKGLEWVSGINYNSGYKGYADSVKGRFTISRDNSKNTLYLQMNSLRAEDTAVYYCARSANWHDTALDYWGQGTLVTVSS
VL: DIQMTQSPSSLSASVGDRVTITCRASQSIISYLNWYQQKPGKAPKLLIYAVTSRASGVPSRFSGSGSGTDFTLTISSLQPEDFATYYCQQSYDTPLTFGGGTKVEIK
Regarding B17, the binding result in experiment [1] and in experiment [2] was “no binding (tested: 1 uM top)” in each case.
